Library screening results

Protein sequences, listed by entry. Tags and fused reporters are not part of them.
UniProt E9BF75, entry or part of it: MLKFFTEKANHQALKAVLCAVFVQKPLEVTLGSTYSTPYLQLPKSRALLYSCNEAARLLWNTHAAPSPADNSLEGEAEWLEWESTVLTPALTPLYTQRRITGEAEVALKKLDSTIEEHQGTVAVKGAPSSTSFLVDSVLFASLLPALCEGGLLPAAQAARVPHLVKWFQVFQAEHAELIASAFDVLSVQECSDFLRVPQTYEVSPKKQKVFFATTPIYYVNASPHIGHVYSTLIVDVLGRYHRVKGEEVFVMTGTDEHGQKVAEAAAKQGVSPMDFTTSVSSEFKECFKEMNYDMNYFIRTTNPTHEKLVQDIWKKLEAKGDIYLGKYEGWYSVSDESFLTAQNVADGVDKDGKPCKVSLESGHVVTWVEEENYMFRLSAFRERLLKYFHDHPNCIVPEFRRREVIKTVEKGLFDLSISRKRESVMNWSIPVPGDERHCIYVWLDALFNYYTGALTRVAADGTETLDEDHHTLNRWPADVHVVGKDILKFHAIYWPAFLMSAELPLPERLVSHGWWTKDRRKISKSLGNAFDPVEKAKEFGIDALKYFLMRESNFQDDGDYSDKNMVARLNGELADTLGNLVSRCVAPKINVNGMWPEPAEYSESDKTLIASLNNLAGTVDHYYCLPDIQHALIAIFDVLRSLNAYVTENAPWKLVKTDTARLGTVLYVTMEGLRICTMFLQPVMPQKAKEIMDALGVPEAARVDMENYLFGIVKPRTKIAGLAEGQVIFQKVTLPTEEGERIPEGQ

Measurements from “University of Dundee, Small-Polar-MMV Screening Library” (2021), ChEMBL document CHEMBL3988442.

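Methionyl-tRNA synthetase (putative), Leishmania donovani (UniProt E9BF75). Primary screen of methionyl-tRNA synthetase; the read-out is not stated. The test concentration is not given. Values are per cent inhibition. About 68,000 compounds were tested under these conditions; 0.035% (about 24) showed 50% or more at least once.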

Results are percentages, as filed. How 0% and 100% were set is not recorded. Most values in the screen are low, and negative values occur. Compounds were drawn at random from those tested, without regard to their results.

| Compound | Inhibition |
|---|---|
| `CC(CNC(=O)c1c[nH]nn1)Oc1ccccc1Br` (centres undefined) | 5.017% |
| `Cc1ccc(O)c(CNCC(C)c2nc3ccccc3o2)n1` (centres undefined) | 8.333% |
| `COc1cccc([C@H]2CN(C(C)=O)[C@@H]3CCN(Cc4ccsc4)C[C@H]23)c1` | 17.72% |
| `CC(=O)N1CCC(C(=O)NCCc2c[nH]c3cc(C)ccc23)CC1` | 6.021% |
| `Cc1nc(Cn2c(=O)cnc3ccccc32)n(C)n1` | 13.76% |
| `COc1cc(N2CCC3(CC2)C(c2ccncc2)CC(=O)N3C)ncn1` (centres undefined) | 15.13% |
| `CC(C)n1c(=O)c2ccccc2n(CCCN(C)C)c1=O` | 12.83% |
| `COc1cccc(S(=O)(=O)CCN2CCn3c(C)nnc3C2)c1` | 15.06% |
| `CC(C)CN1CCc2[nH]cnc2C12CCN(C(=O)c1cnn(C)c1)CC2` | 18.77% |
| `CC(C)N1CCC2(C=C(C(=O)N(C)C)c3ccccc32)CC1` | -1.613% |
| `Cc1nn(C)c2cnn(Cc3ccc(C(=O)N4CCN(C)CC4)o3)c12` | 2.611% |
| `O=C([C@H]1CCS(=O)(=O)[C@@H]2CN(CCc3ccccc3)C[C@H]12)N1CCCC1` | 14.14% |
| `Cn1cc([C@@H]2CN(S(=O)(=O)c3ccccc3F)C[C@H]2N)c2ccncc21` | 4.658% |
| `COc1ccccc1OCCNCCn1cccn1` | 19.2% |
| `Cc1nn(C)c2nc(N(CCOc3ccccc3)CC3CCCO3)sc12` (centres undefined) | 8.163% |
| `CCn1nc2c(cc1=O)CN(CCCOc1ccc(C#N)cc1)CC2` | 9.235% |
| `Cc1n[nH]c(C2CN(CC(=O)NCCC3=CCCCC3)CCO2)n1` (centres undefined) | 16.17% |
| `CC(O)C(=O)N1CCC(c2[nH]ncc2-c2ccccc2)CC1` (centres undefined) | 11.43% |
| `CN1CCN(C(=O)c2ccc3c(c2)[nH]c(=O)n3C2CCCC2)CC1` | 3.542% |
| `CCc1nc(-c2ccc(NC(=O)N3CCCC3)cc2)no1` | 16.91% |
| `O=C(CC1CC1)N1CCC2(COCc3cnc(N4CCOCC4)nc32)C1` (centres undefined) | 14.93% |
| `Cc1cc(N2CCC(N(C)C(=O)c3ccc(C#N)cc3)CC2)nc(C)n1` | -815.1% |
| `OCC1CCCN1c1cc(NCc2cccc3cccnc23)ncn1` (centres undefined) | 13.25% |
| `Cc1ccc(-c2noc(C3CCN3C(=O)c3c(C)noc3C)n2)s1` (centres undefined) | 6.977% |
| `O=C(Nc1ccccc1OC(F)(F)F)C1CCS(=O)(=O)C1` (centres undefined) | 9.42% |
| `CCC(O)CN1CCN(C(=O)c2cc(Cl)cc3cccnc23)CC1` (centres undefined) | 12.72% |
| `CN(c1ccc(C(=O)NCCCN2CCCCC2)c(Cl)c1)S(C)(=O)=O` | 9.537% |
| `CN(C)C(CNC(=O)c1nc(N2CCOCC2)ncc1Cl)c1ccco1` (centres undefined) | 5.986% |
| `COC(=O)c1ccc(CNCc2cn(C)nc2C)cc1` | 5.135% |
| `O=C(COCCOc1ccccc1)N1CCCC(n2ccnc2)C1` (centres undefined) | 8.743% |
| `CNC(=O)N1CCc2nc(C(=O)NCc3cccc(OC)c3)sc2CC1` | 1.493% |
| `Cc1cc(CNC(=O)N2CCN(c3ccc(Cl)cn3)CC2)c(C)o1` | 12.63% |
| `O=C(N1CCCC1)N1Cc2nccn2CC(COc2cccnc2)C1` (centres undefined) | 13.97% |
| `CCOc1ccccc1CCN1Cc2ncccc2C1=O` | 4.872% |
| `O=C(NCC(O)COc1cccc(F)c1)c1ccoc1` (centres undefined) | 14.63% |
| `Cc1ncsc1C(=O)N(Cc1cccnc1)C1CC1` | 9.202% |
| `O=C(N[C@@H]1CC[C@@H](n2ccnc2)[C@@H]1O)c1cc2c(s1)CCC2` | 19.27% |
| `CC(C)c1nccn1-c1nccnc1C1CCCN1Cc1ccccc1` (centres undefined) | 23.62% |
| `CCCc1ncc(CN(C)C2CCCN(CCc3ccccc3)C2)cn1` (centres undefined) | 13.38% |
| `CCc1csc(C2CCCN(C(=O)c3ccc(OC)nc3)C2)n1` (centres undefined) | 11.49% |
| `CCc1ccc(CNC(=O)N2CCN(Cc3cc(C)no3)CC2)s1` | 3.15% |
| `O=C(NC1CC1)C1CCCN1c1ncnc2ccsc12` (centres undefined) | 0.2639% |
| `O=C(O)CC1COCCN1Cc1ccccc1-c1ccccc1` (centres undefined) | 3.684% |
| `CCc1nc(CN2CCCN(C(=O)C(C)COC)CC2)cs1` (centres undefined) | 5.263% |
| `CCn1nc(C)c(NC(=O)c2cc(NC(=O)C3CC3)n(C)n2)c1C` | 8.271% |
| `Cc1ccc(CNCCOc2ccc(S(C)(=O)=O)cc2)cc1` | 4.5% |
| `Cc1cccc(NC(=O)CN(C)C(=O)c2ccc(OC(C)C)nc2)n1` | 13.04% |
| `CN1CCNC(=O)C12CCN(Cc1ccco1)CC2` | 1.333% |
| `O=C(CCN1CCOC1=O)Nc1cnn(-c2ccccc2Cl)c1` | 13.41% |
| `CCn1ccnc1CN1CCN(C(C)C(=O)NC2CCCC2)CC1` (centres undefined) | 8.947% |
| `CCOCCN1CCN(CCC(=O)N2CCCCC2)CC1` | 3.147% |
| `Cn1c(=O)n(C)c2cc(NS(=O)(=O)Cc3ccccc3)ccc21` | 14.92% |

4 of the entries, repeated:

* CN1CCNC(=O)C12CCN(Cc1ccco1)CC2 : 1.333%
* CN1CCN(C(=O)c2ccc3c(c2)[nH]c(=O)n3C2CCCC2)CC1 : 3.542%
* Cn1cc([C@@H]2CN(S(=O)(=O)c3ccccc3F)C[C@H]2N)c2ccncc21 : 4.658%
* CCCc1ncc(CN(C)C2CCCN(CCc3ccccc3)C2)cn1 (centres undefined) : 13.38%